# In patent US20170260242, “METHOD FOR MODIFYING RNA BINDING PROTIEN USING PPR MOTIF” (Kyushu University, National University Corporation, published 2017):
# Where a chain is given by its changes, count along the chain named. For part of these data: A weaker result is weaker than the reference pair of the same experiment. Where a protein sequence is shown, tags need not be part of it.
# How the values were obtained:
# Assay in all cases: EMSA
# [1] = biological target: T1, HCF152/3&4 (Arabidopsis thaliana) (UniProt Q9SF38); settings: G>U>A; 200 nM protein; purified recombinant protein; protein details: N-terminal thioredoxin, C-terminal His; label: 5'-32P
# T1 sequence: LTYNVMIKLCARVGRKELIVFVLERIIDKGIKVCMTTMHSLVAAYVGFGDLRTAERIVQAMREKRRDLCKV
# [2] = biological target: T2, 5&6/5-G9A (Arabidopsis thaliana) (UniProt Q9SF38); settings: position 9 substitution reduces affinity 10-fold or more (position-level statement); purified recombinant protein; protein details: N-terminal thioredoxin, C-terminal His; label: 32P-UTP internal
# T2 sequence: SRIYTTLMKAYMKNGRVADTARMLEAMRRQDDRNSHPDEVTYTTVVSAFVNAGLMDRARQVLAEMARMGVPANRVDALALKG
# [3] = biological target: T3, 5&6/5-G9L (Arabidopsis thaliana) (UniProt Q9SF38); settings: position 9 substitution reduces affinity 10-fold or more (position-level statement); purified recombinant protein; protein details: N-terminal thioredoxin, C-terminal His; label: 32P-UTP internal
# T3 sequence: T2 sequence with A10L
# [4] = biological target: T4, 5&6/5-K12A (Arabidopsis thaliana) (UniProt Q9SF38); settings: position 12 substitution reduces affinity 10-fold or more (position-level statement); purified recombinant protein; protein details: N-terminal thioredoxin, C-terminal His; label: 32P-UTP internal
# T4 sequence: T2 sequence with A10G, K13A
# [5] = biological target: T5, 5&6/5-K12N (Arabidopsis thaliana) (UniProt Q9SF38); settings: ND; purified recombinant protein; protein details: N-terminal thioredoxin, C-terminal His; label: 32P-UTP internal
# T5 sequence: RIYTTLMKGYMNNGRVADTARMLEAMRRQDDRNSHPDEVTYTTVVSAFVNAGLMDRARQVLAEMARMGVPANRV
# [6] = biological target: T6, 5&6/5-K8A (Arabidopsis thaliana) (UniProt Q9SF38); settings: position 8 substitution reduces affinity 10-fold or more (position-level statement); purified recombinant protein; protein details: N-terminal thioredoxin, C-terminal His; label: 32P-UTP internal
# T6 sequence: T2 sequence with K9A, A10G
# [7] = biological target: T7, 5&6/5-K8N (Arabidopsis thaliana) (UniProt Q9SF38); settings: position 8 substitution reduces affinity 10-fold or more (position-level statement); purified recombinant protein; protein details: N-terminal thioredoxin, C-terminal His; label: 32P-UTP internal
# T7 sequence: T2 sequence with K9N, A10G
# [8] = biological target: T8, 5&6/5-R1A (Arabidopsis thaliana) (UniProt Q9SF38); settings: position 1 substitution reduces affinity 10-fold or more (position-level statement); purified recombinant protein; protein details: N-terminal thioredoxin, C-terminal His; label: 32P-UTP internal
# T8 sequence: T5 sequence with R1A, N12K
# [9] = biological target: T9, 5&6/5-R1I (Arabidopsis thaliana) (UniProt Q9SF38); settings: position 1 substitution reduces affinity 10-fold or more (position-level statement); purified recombinant protein; protein details: N-terminal thioredoxin, C-terminal His; label: 32P-UTP internal
# T9 sequence: T5 sequence with R1I, N12K
# [10] = biological target: T10, 5&6/5-T4E (Arabidopsis thaliana) (UniProt Q9SF38); settings: position 4 substitution reduces affinity 10-fold or more (position-level statement); purified recombinant protein; protein details: N-terminal thioredoxin, C-terminal His; label: 32P-UTP internal
# T10 sequence: T5 sequence with T4E, N12K
# [11] = biological target: T11, 5&6/5-T4N (Arabidopsis thaliana) (UniProt Q9SF38); settings: position 4 substitution reduces affinity 10-fold or more (position-level statement); purified recombinant protein; protein details: N-terminal thioredoxin, C-terminal His; label: 32P-UTP internal
# T11 sequence: T5 sequence with T4N, N12K
# [12] = biological target: T12, 5&6/6-N12R (Arabidopsis thaliana) (UniProt Q9SF38); settings: Kd=ND; purified recombinant protein; protein details: N-terminal thioredoxin, C-terminal His; label: 32P-UTP internal
# T12 sequence: T5 sequence with N12K, N50R
# [13] = biological target: T13, HCF152/6&7 (Arabidopsis thaliana) (UniProt Q9SF38); settings: ND, below detection limit; purified recombinant protein; protein details: N-terminal thioredoxin, C-terminal His; label: 32P-UTP internal
# T13 sequence (limits assumed): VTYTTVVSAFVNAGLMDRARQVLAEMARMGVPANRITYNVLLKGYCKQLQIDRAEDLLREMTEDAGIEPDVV
# [14] = biological target: T14, HCF152/2&3 (Arabidopsis thaliana) (UniProt Q9SF38); settings: A>G>U; 200 nM protein; purified recombinant protein; protein details: N-terminal thioredoxin, C-terminal His; label: 5'-32P
# T14 sequence: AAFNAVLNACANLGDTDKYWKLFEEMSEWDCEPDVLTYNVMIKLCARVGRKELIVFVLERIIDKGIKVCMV
# [15] = biological target: T15, HCF152/5&6 (Arabidopsis thaliana) (UniProt Q9SF38); settings: A>G>U; 200 nM protein; purified recombinant protein; protein details: N-terminal thioredoxin, C-terminal His; label: 5'-32P
# T15 sequence (limits assumed): T5 sequence with N12K
# [16] = biological target: T16, HCF152/7&8 (Arabidopsis thaliana) (UniProt Q9SF38); settings: A>U>G; 200 nM protein; purified recombinant protein; protein details: N-terminal thioredoxin, C-terminal His; label: 5'-32P
# T16 sequence: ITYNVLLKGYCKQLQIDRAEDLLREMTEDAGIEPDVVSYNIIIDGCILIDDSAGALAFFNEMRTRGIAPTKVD
# [17] = biological target: T17, HCF152/9&10 (Arabidopsis thaliana) (UniProt Q9SF38); settings: A>G>U; 200 nM protein; purified recombinant protein; protein details: N-terminal thioredoxin, C-terminal His; label: 5'-32P
# T17 sequence: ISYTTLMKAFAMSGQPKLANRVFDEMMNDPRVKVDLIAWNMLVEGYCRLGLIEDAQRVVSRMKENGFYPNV
Sequence,binding result [1],binding result [2],binding result [3],binding result [4],Kd [5] [µM],binding result [6],binding result [7],binding result [8],binding result [9],binding result [10],binding result [11],Kd [12] [µM],Kd [13] [µM],binding result [14],binding result [15],binding result [16],binding result [17]
AUCGAAAAAAAAAAAAAAAAAAAAAAAAA [LA25],binds more weakly,,,,,,,,,,,,,,,,
CUGGAUGGAAUUUCAGUGAAUUAGACUGAGAAGAAUCUUGAAGUUCUAGCUUUUAGCUCGAUACAAAAAAGUAAAGUAUGCAGGUCUAACAAUUUUAGCCUAUUCUCCUUUGGUAGUUCG [BD120 (petB)],,binds more weakly,binds more weakly,binds more weakly,> 3.75,binds more weakly,binds more weakly,binds more weakly,binds more weakly,binds more weakly,binds more weakly,> 3.75,> 3.75,,,,
AUCGUUUUUUUUUUUUUUUUUUUUUUUUU [LU25],binds more weakly,,,,,,,,,,,,,binds more weakly,binds more weakly,binds more weakly,binds more weakly
